Results reported in PubChem BioAssay AID493014 (National Center for Advancing Translational Sciences (NCATS), 2011).
Out of some 340,000 compounds screened, about 170 (0.05%) were called active. This list was built around the results that the source calls inconclusive (neither active nor inactive); the mix of calls is not that of the screen. Calls follow the shape of the dose curve; as a rule, active = well fitted inhibition curve with a large enough effect in the signal ratio, with a control signal flat (not every such curve was filed as active); inconclusive = small, poorly fitted or top-dose-only effect, or effect the other way, or a change in a side signal; inactive = flat fitted curve, though single readings scatter; the % refers to the signal ratio. Potencies of inconclusive entries are doubtful fits and often do not repeat.

Test: qHTS Assay to Find Inhibitors of Chronic Active B-Cell Receptor Signaling;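 as to activity change, negative = inhibition: plate controls were basal doxycycline-induced cells for no effect and cells given 10 µM MG132 for full effect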
Conditions: ABC-DLBCL IkBa-CBG/CBR reporter, luminescence ratio (green luciferase fused to IkBa over red control in TMD8 lymphoma cells), 4 h; activity change, negative = inhibition: at 46.1 µM (top of the series) unless noted
How it was run: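 Cell line TMD8 (human ABC DLBCL), stably expressing tet-inducible CBG68-IkBa fusion and CBR; IMDM/0.5% FBS; cpd up to 46 uM; dox induction, 4 h, 37C/5% CO2; dual luminescence; green/red ratio; MG132 control.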
Potency is read from the fitted curve at half-maximal effect.

Structure (SMILES) | activity change, negative = inhibition | Potency
CCOC(=O)C1=C(C)N=C2c3ccccc3C(=O)C2C1c1ccc(Br)cc1 (configuration not stated) | inconclusive: 21.8% | 
COc1ccc(CN(C(=O)Cn2nnc(-c3ccc(C)o3)n2)C(C(=O)NCC2CCCO2)c2ccco2)cc1 (configuration not stated) | inactive: 10.9% | 
CC(=O)Nc1ccc(SCC(=O)N(CCC#N)c2cc(C)cc(C)c2)cc1 | inconclusive: -10% | 
Cc1nc(S/C(=C/c2ccc(-c3ccc(C(=O)O)cc3)o2)C(=O)O)n[nH]1 |  | inconclusive: 22.4 µM [falling, single point]
COc1ccc(Cl)cc1NC(=O)C(C)Sc1nnc(C2CC2)n1C1CC1 (configuration not stated) | inconclusive: 11.7% | 
Cc1ccc2cccc(O)c2[n+]1[O-] | inconclusive: -0.469% | 
Cc1ccc(-n2c(-c3ccccc3)c[nH]c2=S)cc1 | inactive: -2.83% | 
CCc1nc2scc(-c3cccs3)c2c(=O)o1 |  | inconclusive: 13 µM [falling, partial curve, poor fit]
NS(=O)(=O)c1ccc(NNC(=O)c2cccs2)cc1 | inconclusive: -2.05% | 
COC(=O)c1ccccc1NC(=O)C(=O)NCc1ccncc1 |  | inconclusive: 25.1 µM [falling, single point]
COc1ccc(-c2nnc(CSc3nnc(-c4ccncc4)n3C3CCCCC3)o2)cc1OC | inconclusive: 16.9% | 
CCOC(=O)CSc1nc2c(c(=O)[nH]1)C(C)(CC)Cc1ccccc1-2 (configuration not stated) |  | inconclusive: 17.8 µM [falling, partial curve, poor fit]
CCC(=O)Nc1ccc(-c2nc3ccccc3c(=O)o2)cc1 |  | inconclusive: 35.5 µM [falling, single point]
CC(C)(C)NC(=O)CCN(/N=C/c1ccc([N+](=O)[O-])o1)C1=NS(=O)(=O)c2ccccc21 | inactive: -11% | 
CCN(c1ccc(NC(=O)CN2C(=O)NC3(CCOc4ccccc43)C2=O)cc1)C(C)C (configuration not stated) |  | inconclusive: 25.9 µM [falling, single point]
CCCOC(=O)CC1C(=O)NCCN1Cc1cc(OC)cc(OC)c1 (configuration not stated) | inconclusive: 1.79% | 
O=C(COc1ccccc1F)NNC(=O)c1cccc(-n2cccc2)c1 | inconclusive: 6.46% | 
Cc1ccc(NC(=O)CSc2nc3c(cc2C#N)C(=O)CCC3)cc1S(=O)(=O)N(C)C | inactive: -5.71% | 
c1nc(NC2CCCC2)c2[nH]cnc2n1 | inconclusive: -10.6% | 
COc1cc(C(=O)Nc2ccc(Br)cc2C(=O)c2cc(OC)c(OC)c(OC)c2)cc(OC)c1OC | inconclusive: -8.32% | 
COc1ccccc1CNc1ncnc2c1c(-c1ccccc1)cn2-c1ccc(Br)cc1 | inconclusive: 0.408% | 
Cc1ccc(CN(c2ccc(C(=O)Nc3cccnc3)cc2)S(C)(=O)=O)cc1 | inconclusive: -5.76% | 
